Test results: ChEMBL document CHEMBL5465560, “Selectivity Literature for EUbOPEN Chemogenomic Library” (2024)

By UniProt entry, the sequences of proteins in these tests, tags left out. Where a name states a change or a piece, a line headed by the entry shows the natural chain unless it says otherwise.
UniProt Q8IU85: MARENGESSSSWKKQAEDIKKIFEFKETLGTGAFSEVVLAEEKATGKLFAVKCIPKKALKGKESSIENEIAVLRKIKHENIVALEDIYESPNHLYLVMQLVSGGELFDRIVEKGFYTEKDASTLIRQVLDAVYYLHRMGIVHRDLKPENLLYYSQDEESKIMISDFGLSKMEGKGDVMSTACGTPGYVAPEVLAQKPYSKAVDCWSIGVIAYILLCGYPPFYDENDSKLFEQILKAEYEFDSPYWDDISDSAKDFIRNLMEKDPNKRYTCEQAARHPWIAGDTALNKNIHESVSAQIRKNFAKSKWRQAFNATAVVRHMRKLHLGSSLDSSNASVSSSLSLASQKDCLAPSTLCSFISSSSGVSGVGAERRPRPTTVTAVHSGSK
UniProt Q9UQM7, whole entry: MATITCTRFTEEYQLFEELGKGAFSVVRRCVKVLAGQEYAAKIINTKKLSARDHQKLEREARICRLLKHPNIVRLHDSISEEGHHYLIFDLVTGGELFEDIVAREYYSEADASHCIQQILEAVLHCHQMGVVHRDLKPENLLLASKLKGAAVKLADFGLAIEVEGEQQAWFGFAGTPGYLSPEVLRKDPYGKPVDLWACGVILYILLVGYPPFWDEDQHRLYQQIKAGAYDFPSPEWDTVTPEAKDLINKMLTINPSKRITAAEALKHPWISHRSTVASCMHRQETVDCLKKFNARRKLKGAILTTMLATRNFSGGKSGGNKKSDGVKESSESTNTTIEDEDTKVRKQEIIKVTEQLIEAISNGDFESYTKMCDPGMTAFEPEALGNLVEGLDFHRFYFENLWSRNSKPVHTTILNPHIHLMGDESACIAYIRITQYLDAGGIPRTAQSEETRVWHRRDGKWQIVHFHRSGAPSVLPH
UniProt Q92772: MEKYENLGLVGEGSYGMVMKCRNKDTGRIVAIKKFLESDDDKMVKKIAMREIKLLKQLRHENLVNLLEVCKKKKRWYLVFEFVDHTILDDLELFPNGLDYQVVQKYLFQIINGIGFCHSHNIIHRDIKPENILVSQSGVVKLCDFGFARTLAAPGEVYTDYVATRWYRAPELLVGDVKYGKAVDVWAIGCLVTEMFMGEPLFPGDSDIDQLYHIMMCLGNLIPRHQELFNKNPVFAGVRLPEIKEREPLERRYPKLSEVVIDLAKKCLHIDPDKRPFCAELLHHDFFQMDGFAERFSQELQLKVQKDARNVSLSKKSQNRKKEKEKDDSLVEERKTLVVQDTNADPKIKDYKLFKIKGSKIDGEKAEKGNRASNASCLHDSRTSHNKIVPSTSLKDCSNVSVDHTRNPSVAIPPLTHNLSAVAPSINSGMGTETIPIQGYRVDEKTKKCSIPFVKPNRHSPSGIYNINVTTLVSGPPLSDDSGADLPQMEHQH
UniProt Q9Y2H9: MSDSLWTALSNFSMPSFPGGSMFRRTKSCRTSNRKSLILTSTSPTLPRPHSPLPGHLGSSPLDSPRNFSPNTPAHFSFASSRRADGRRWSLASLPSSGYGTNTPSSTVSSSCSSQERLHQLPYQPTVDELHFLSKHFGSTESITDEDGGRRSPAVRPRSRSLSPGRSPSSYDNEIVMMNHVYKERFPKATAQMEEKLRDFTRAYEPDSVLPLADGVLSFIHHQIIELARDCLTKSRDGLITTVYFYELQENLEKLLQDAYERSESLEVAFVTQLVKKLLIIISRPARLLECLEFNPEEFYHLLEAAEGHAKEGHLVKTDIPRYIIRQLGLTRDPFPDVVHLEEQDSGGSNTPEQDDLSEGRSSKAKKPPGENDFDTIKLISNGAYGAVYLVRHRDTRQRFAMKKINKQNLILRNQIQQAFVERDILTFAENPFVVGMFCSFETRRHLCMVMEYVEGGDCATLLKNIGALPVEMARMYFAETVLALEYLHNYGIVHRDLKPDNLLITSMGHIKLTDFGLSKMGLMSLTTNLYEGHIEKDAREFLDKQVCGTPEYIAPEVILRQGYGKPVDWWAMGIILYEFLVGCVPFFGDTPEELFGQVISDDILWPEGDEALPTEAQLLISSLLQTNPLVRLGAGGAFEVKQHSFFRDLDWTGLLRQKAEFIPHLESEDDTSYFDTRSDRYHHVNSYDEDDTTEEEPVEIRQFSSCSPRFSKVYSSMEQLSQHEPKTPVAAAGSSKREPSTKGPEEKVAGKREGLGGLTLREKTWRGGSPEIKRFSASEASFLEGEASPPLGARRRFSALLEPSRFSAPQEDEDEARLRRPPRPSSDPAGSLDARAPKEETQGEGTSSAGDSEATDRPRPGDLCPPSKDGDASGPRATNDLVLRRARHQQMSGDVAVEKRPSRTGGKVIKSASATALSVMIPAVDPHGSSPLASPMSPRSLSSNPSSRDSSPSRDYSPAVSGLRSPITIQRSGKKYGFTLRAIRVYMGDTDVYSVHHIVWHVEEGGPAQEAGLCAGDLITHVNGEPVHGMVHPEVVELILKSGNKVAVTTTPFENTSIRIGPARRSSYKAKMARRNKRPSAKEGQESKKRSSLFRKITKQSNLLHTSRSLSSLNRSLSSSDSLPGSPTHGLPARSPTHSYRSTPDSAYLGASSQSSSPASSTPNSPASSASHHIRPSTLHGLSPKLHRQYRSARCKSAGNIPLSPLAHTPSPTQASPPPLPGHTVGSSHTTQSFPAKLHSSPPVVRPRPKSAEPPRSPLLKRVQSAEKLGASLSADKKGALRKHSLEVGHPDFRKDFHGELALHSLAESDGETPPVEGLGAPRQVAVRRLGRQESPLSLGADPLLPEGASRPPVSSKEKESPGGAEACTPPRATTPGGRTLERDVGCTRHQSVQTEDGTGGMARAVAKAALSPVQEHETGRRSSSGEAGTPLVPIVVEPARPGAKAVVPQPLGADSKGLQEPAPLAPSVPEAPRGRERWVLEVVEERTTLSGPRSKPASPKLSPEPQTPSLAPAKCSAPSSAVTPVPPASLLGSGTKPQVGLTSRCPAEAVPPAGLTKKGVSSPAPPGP
UniProt P42679: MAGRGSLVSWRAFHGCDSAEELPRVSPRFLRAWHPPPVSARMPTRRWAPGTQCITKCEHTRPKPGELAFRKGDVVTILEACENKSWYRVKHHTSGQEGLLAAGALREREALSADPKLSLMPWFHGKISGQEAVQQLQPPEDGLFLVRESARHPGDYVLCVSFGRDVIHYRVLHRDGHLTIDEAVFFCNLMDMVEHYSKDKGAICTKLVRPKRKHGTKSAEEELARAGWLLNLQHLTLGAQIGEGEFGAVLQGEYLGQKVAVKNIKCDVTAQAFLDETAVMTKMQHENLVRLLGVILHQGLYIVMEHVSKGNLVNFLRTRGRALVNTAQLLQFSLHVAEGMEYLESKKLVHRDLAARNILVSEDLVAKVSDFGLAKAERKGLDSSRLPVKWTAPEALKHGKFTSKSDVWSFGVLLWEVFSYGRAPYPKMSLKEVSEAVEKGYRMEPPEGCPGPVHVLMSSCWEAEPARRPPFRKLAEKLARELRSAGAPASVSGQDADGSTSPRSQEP
UniProt Q8TDX7: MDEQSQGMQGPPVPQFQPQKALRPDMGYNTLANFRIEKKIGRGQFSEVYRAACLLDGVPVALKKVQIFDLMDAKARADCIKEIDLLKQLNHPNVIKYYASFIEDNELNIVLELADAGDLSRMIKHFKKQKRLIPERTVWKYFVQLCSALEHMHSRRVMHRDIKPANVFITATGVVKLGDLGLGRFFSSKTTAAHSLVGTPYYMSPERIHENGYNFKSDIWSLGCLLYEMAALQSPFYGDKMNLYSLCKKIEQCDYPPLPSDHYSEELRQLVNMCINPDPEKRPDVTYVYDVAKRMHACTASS
UniProt O75914, whole entry, looked up: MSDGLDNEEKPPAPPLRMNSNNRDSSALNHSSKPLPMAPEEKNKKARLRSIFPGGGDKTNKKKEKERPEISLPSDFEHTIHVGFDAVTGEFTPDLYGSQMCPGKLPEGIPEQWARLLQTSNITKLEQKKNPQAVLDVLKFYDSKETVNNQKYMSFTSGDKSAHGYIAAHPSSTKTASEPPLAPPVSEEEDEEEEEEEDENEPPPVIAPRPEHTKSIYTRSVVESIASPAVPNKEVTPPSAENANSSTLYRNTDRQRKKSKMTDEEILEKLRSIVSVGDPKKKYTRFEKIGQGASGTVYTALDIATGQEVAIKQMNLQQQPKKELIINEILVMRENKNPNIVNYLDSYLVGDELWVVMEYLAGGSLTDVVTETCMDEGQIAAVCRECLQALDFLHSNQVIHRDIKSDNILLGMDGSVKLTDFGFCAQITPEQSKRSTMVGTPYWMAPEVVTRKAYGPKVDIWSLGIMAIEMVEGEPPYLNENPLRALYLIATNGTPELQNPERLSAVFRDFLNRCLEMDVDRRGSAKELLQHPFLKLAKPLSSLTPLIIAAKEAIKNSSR
UniProt O75747: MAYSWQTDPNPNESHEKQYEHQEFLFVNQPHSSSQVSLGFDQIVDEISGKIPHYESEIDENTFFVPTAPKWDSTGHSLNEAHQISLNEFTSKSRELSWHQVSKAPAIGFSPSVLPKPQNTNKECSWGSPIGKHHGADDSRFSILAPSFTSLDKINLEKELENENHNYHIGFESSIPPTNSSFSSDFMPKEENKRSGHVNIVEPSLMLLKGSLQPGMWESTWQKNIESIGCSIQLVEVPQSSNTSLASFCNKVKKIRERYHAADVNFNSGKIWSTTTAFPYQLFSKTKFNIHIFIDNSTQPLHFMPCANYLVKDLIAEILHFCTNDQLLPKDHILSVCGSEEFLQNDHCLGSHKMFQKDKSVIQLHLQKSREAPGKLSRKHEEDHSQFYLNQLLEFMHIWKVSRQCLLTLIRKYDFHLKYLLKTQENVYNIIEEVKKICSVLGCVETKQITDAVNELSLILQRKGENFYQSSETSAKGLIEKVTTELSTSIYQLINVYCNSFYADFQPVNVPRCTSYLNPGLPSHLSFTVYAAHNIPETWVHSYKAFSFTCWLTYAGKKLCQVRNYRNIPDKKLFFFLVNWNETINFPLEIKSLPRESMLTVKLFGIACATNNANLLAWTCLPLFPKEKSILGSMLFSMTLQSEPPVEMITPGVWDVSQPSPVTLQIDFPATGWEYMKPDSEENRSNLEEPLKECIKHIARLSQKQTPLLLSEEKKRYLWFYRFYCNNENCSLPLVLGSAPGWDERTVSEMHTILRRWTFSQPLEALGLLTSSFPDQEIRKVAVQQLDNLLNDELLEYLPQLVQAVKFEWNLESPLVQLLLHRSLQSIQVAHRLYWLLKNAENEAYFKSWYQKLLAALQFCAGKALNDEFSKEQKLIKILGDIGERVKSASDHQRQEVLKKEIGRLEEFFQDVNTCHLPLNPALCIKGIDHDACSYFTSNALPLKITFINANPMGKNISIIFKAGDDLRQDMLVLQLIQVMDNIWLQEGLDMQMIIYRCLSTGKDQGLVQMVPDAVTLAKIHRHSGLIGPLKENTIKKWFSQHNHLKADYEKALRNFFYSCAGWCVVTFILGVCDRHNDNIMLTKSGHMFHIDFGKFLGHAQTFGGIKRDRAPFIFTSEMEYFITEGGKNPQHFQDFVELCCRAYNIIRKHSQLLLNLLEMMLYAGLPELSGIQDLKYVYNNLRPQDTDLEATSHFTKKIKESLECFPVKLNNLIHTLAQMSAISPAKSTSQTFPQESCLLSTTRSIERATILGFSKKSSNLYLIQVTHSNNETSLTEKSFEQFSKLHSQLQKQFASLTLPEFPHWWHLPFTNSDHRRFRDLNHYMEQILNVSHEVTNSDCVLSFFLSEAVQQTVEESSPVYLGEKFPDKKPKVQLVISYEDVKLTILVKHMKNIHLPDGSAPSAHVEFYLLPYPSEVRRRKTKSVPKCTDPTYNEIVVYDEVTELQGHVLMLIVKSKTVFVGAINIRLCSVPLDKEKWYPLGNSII
UniProt Q04759: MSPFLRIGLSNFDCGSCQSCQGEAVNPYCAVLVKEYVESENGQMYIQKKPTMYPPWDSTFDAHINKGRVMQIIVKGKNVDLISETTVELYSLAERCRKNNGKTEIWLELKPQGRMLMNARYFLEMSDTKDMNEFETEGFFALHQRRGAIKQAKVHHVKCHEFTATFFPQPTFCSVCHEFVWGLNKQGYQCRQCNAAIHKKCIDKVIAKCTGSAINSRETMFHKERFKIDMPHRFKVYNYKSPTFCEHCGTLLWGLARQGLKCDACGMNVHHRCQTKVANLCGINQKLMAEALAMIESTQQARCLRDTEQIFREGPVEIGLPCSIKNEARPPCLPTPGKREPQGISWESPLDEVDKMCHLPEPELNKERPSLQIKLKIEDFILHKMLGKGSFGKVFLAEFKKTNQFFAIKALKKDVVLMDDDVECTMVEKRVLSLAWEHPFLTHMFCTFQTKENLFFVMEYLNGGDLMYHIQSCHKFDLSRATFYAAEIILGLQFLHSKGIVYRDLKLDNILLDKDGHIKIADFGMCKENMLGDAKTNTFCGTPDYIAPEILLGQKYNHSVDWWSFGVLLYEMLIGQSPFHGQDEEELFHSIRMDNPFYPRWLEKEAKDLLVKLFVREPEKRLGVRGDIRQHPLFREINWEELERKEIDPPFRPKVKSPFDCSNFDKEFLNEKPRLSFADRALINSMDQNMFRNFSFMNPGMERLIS

Experiments:
Conditions in all cases: at 1 µM
[1] = target: Tyrosine-protein kinase ABL1 (Homo sapiens, UniProt P00519); test: Selectivity interaction (KinomeScan (DiscoverX)) EUB0001581a ABL1
[2] = target: Activin receptor type-2B (Homo sapiens) (UniProt Q13705); test: Selectivity interaction (KinomeScan (DiscoverX)) EUB0001581a ACVR2B
[3] = target: Ankyrin repeat and protein kinase domain-containing protein 1 (Homo sapiens) (UniProt Q8NFD2); test: Selectivity interaction (KinomeScan (DiscoverX)) EUB0001581a ANKK1
[4] = target: Tyrosine-protein kinase receptor UFO (Homo sapiens) (UniProt P30530); test: Selectivity interaction (KinomeScan (DiscoverX)) EUB0001581a AXL
[5] = target: Calcium/calmodulin-dependent protein kinase type 1D (Homo sapiens) (UniProt Q8IU85); test: Selectivity interaction (KinomeScan (DiscoverX)) EUB0001581a CAMK1D
[6] = target: Calcium/calmodulin-dependent protein kinase type II subunit alpha (Homo sapiens, UniProt Q9UQM7); test: Selectivity interaction (KinomeScan (DiscoverX)) EUB0001581a CAMK2A
[7] = target: Cyclin-dependent kinase 5 (Homo sapiens, UniProt Q00535); test: Selectivity interaction (KinomeScan (DiscoverX)) EUB0001581a CDK5
[8] = target: Cyclin-dependent kinase-like 2 (Homo sapiens) (UniProt Q92772); test: Selectivity interaction (KinomeScan (DiscoverX)) EUB0001581a CDKL2
[9] = target: Inhibitor of nuclear factor kappa-B kinase subunit alpha (Homo sapiens) (UniProt O15111); test: Selectivity interaction (KinomeScan (DiscoverX)) EUB0001581a CHUK
[10] = target: Casein kinase II subunit alpha (Homo sapiens, UniProt P68400); test: Selectivity interaction (KinomeScan (DiscoverX)) EUB0001581a CSNK2A1
[11] = target: Ephrin type-B receptor 1 (Homo sapiens) (UniProt P54762); test: Selectivity interaction (KinomeScan (DiscoverX)) EUB0001581a EPHB1
[12] = target: Tyrosine-protein kinase Fes/Fps (Homo sapiens) (UniProt P07332); test: Selectivity interaction (KinomeScan (DiscoverX)) EUB0001581a FES
[13] = target: Tyrosine-protein kinase Fgr (Homo sapiens) (UniProt P09769); test: Selectivity interaction (KinomeScan (DiscoverX)) EUB0001581a FGR
[14] = target: Tyrosine-protein kinase Lck (Homo sapiens, UniProt P06239); test: Selectivity interaction (KinomeScan (DiscoverX)) EUB0001581a LCK
[15] = target: Mitogen-activated protein kinase kinase kinase kinase 3 (Homo sapiens) (UniProt Q8IVH8); test: Selectivity interaction (KinomeScan (DiscoverX)) EUB0001581a MAP4K3
[16] = target: Microtubule-associated serine/threonine-protein kinase 1 (Homo sapiens) (UniProt Q9Y2H9); test: Selectivity interaction (KinomeScan (DiscoverX)) EUB0001581a MAST1
[17] = target: Megakaryocyte-associated tyrosine-protein kinase (Homo sapiens) (UniProt P42679); test: Selectivity interaction (KinomeScan (DiscoverX)) EUB0001581a MATK
[18] = target: Myosin-IIIb (Homo sapiens) (UniProt Q8WXR4); test: Selectivity interaction (KinomeScan (DiscoverX)) EUB0001581a MYO3B
[19] = target: Serine/threonine-protein kinase Nek7 (Homo sapiens) (UniProt Q8TDX7); test: Selectivity interaction (KinomeScan (DiscoverX)) EUB0001581a NEK7
[20] = target: Serine/threonine-protein kinase Nek9 (Homo sapiens) (UniProt Q8TD19); test: Selectivity interaction (KinomeScan (DiscoverX)) EUB0001581a NEK9
[21] = target: Serine/threonine-protein kinase PAK 2 (Homo sapiens) (UniProt Q13177); test: Selectivity interaction (KinomeScan (DiscoverX)) EUB0001581a PAK2
[22] = target: Serine/threonine-protein kinase PAK 3 (Homo sapiens) (UniProt O75914); test: Selectivity interaction (KinomeScan (DiscoverX)) EUB0001581a PAK3
[23] = target: Phosphatidylinositol 4-phosphate 3-kinase C2 domain-containing subunit beta (Homo sapiens) (UniProt O00750); test: Selectivity interaction (KinomeScan (DiscoverX)) EUB0001581a PIK3C2B
[24] = target: Phosphatidylinositol 3-kinase C2 domain-containing subunit gamma (Homo sapiens) (UniProt O75747); test: Selectivity interaction (KinomeScan (DiscoverX)) EUB0001581a PIK3C2G
[25] = target: 5'-AMP-activated protein kinase catalytic subunit alpha-1 (Homo sapiens, UniProt Q13131); test: Selectivity interaction (KinomeScan (DiscoverX)) EUB0001581a PRKAA1
[26] = target: Protein kinase C theta type (Homo sapiens, UniProt Q04759); test: Selectivity interaction (KinomeScan (DiscoverX)) EUB0001581a PRKCQ
[27] = target: Rho-associated protein kinase 2 (Homo sapiens, UniProt O75116); test: Selectivity interaction (KinomeScan (DiscoverX)) EUB0001581a ROCK2
[28] = target: Ribosomal protein S6 kinase alpha-5 (Homo sapiens) (UniProt O75582); test: Selectivity interaction (KinomeScan (DiscoverX)) EUB0001581a RPS6KA5
[29] = target: Uncharacterized serine/threonine-protein kinase SBK3 (Homo sapiens) (UniProt P0C264); test: Selectivity interaction (KinomeScan (DiscoverX)) EUB0001581a SBK3
[30] = target: Proto-oncogene tyrosine-protein kinase Src (Homo sapiens, UniProt P12931); test: Selectivity interaction (KinomeScan (DiscoverX)) EUB0001581a SRC
SRSF protein kinase 1 = SRSF protein kinase 1 (Homo sapiens, UniProt Q96SB4); test: Selectivity interaction (KinomeScan (DiscoverX)) EUB0001581a SRPK1
[31] = target: Serine/threonine-protein kinase 35 (Homo sapiens) (UniProt Q8TDR2); test: Selectivity interaction (KinomeScan (DiscoverX)) EUB0001581a STK35
[32] = target: STE20/SPS1-related proline-alanine-rich protein kinase (Homo sapiens) (UniProt Q9UEW8); test: Selectivity interaction (KinomeScan (DiscoverX)) EUB0001581a STK39
[33] = target: Serine/threonine-protein kinase tousled-like 2 (Homo sapiens) (UniProt Q86UE8); test: Selectivity interaction (KinomeScan (DiscoverX)) EUB0001581a TLK2
[34] = target: Serine/threonine-protein kinase RIO2 (Homo sapiens) (UniProt Q9BVS4)

C[C@@H]1C[C@H](N)C[C@H](c2ccncc2NC(=O)c2ccc(F)c(-c3c(F)cccc3F)n2)C1
% of control [1]: 100% | % of control [2]: 90% | % of control [3]: 100% | % of control [4]: 97% | % of control [5]: 100% | % of control [6]: 100% | % of control [7]: 100% | % of control [8]: 100% | % of control [9]: 69% | % of control [10]: 77% | % of control [11]: 88% | % of control [12]: 100% | % of control [13]: 100% | % of control [14]: 98% | % of control [15]: 100% | % of control [16]: 100% | % of control [17]: 89% | % of control [18]: 100% | % of control [19]: 100% | % of control [20]: 100% | % of control [21]: 64% | % of control [22]: 100% | % of control [23]: 88% | % of control [24]: 100% | % of control [25]: 93% | % of control [26]: 66% | % of control [27]: 77% | % of control [28]: 100% | % of control [29]: 78% | % of control [30]: 100% | % of control (SRSF protein kinase 1): 100% | % of control [31]: 100% | % of control [32]: 84% | % of control [33]: 100% | % of control [34]: 95%
